Literature values, collected in US10472401B2, “Peptides and combination of peptides for use in immunotherapy against ovarian cancer and other cancers” (immatics biotechnologies GmbH, priority 2015, dated 2019).
At least one compound was matched to its structure with a doubt left.

Molecular target: T1, ALDH5A1 (Homo sapiens, UniProt P51649)
T1 construct: host or cells: breast ductal carcinoma models
T1 sequence (P51649 48-535): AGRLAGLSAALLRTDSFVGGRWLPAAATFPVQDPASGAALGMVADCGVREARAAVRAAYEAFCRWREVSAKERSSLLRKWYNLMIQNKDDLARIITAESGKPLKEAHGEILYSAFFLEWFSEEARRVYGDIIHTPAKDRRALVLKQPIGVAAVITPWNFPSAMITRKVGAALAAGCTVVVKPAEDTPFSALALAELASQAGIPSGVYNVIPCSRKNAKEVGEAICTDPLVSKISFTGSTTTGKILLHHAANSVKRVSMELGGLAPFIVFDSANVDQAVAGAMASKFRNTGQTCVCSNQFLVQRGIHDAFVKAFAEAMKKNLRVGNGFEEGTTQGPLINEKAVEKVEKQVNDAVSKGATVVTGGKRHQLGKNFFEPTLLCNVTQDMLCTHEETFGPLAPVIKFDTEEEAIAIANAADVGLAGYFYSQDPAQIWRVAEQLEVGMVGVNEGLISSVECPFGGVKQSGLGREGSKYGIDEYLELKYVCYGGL
Details: cited from earlier work

## CCN(CC)C(=S)SSC(=S)N(CC)CC [disulfiram]
  net proliferation of breast ductal carcinoma models: inhibit net proliferation
